Data from article PMC8824877.
Results are given in words; binding and its absence hold for the method and conditions named. In cells and extracts the contact can be indirect. Some results given as binding are weak or reduced against the parent protein; the word gives no strength.

Sequences of proteins named here, by UniProt entry; tags and fusion partners are left off.
UniProt P53355: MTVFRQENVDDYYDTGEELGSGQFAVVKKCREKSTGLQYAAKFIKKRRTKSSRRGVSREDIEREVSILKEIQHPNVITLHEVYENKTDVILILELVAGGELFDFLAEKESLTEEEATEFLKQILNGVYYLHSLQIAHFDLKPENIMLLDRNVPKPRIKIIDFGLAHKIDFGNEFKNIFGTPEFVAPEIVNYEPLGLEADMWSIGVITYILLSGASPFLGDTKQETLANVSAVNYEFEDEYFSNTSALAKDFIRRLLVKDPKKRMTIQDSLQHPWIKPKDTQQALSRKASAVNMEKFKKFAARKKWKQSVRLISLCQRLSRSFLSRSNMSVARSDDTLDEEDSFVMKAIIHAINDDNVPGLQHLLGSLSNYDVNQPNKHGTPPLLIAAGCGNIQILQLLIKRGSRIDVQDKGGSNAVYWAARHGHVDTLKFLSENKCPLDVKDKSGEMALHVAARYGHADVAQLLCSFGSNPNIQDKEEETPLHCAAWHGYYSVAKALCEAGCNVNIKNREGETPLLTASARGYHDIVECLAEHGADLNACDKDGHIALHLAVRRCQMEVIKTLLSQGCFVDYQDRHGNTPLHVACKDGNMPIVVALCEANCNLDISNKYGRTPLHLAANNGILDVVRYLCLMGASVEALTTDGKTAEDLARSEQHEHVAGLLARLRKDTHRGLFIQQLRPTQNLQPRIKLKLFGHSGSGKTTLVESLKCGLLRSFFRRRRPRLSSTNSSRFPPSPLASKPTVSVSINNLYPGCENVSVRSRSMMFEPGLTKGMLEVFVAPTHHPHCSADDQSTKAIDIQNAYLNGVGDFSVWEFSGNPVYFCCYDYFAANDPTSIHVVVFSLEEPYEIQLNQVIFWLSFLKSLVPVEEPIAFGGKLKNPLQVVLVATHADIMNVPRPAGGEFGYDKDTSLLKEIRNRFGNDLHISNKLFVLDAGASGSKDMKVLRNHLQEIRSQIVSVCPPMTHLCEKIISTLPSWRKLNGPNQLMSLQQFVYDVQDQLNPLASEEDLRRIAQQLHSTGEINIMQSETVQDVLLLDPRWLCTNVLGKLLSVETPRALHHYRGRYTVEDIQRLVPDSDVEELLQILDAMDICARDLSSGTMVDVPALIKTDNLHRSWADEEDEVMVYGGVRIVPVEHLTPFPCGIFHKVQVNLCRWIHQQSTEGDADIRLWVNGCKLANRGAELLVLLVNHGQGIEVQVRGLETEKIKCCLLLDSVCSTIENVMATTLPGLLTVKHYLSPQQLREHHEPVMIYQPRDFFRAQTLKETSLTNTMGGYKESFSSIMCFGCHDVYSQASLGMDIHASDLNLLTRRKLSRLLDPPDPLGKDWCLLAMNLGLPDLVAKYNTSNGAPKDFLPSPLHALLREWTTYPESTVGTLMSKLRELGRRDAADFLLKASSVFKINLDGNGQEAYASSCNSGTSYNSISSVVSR
UniProt P53350: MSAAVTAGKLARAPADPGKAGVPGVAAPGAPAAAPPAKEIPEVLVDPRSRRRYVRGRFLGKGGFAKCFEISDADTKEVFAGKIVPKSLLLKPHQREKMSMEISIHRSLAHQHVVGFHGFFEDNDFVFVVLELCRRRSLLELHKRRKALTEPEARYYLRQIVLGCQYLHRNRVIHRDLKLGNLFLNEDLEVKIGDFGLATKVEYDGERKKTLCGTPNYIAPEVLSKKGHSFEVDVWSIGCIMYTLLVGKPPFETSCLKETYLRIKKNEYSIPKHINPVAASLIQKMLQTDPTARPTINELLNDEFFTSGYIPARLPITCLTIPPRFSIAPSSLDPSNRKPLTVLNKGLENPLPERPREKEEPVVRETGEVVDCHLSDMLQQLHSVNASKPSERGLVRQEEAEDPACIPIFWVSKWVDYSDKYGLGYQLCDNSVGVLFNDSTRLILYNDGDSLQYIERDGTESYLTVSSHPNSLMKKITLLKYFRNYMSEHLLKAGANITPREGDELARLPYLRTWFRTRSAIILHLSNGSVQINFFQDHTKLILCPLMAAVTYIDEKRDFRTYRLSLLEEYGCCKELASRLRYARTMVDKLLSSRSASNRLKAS

Target: Flag-DAPK1 (UniProt P53355)
Assay: co-IP; HeLa cells overexpressing V5-PLK1 and Flag-DAPK; IP with V5- or Flag-specific antibodies; precipitates and 5% of the input immunoblotted

Substance: V5-tagged PLK1 (from UniProt P53350 1-603)
- binding: binds
